Source: PMC9663550
No constants are given. Whether binding was seen depends on the method and setting. Binding seen in cells or lysates may run through a third protein. Some results given as binding are weak or reduced against the parent protein; the word gives no strength. Sequences can lack the tags named with a protein.

Sequences of proteins named here, by UniProt entry; tags and fusion partners are left off. A change or cut given only in a name is not applied to a line headed by its entry. A line that says so, or that is headed by a name, gives the form on record, which may keep a tag or linker.
UniProt Q99623: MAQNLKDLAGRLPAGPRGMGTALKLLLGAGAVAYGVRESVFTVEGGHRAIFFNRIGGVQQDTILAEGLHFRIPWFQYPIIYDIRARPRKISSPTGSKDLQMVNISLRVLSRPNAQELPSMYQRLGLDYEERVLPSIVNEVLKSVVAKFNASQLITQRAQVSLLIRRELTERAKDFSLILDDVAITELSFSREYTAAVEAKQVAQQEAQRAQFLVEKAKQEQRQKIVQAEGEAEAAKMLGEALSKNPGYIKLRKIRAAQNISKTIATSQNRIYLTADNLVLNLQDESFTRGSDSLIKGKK
exo-PHB2 Ser291Ala (MYC-tagged) (Q99623, form named): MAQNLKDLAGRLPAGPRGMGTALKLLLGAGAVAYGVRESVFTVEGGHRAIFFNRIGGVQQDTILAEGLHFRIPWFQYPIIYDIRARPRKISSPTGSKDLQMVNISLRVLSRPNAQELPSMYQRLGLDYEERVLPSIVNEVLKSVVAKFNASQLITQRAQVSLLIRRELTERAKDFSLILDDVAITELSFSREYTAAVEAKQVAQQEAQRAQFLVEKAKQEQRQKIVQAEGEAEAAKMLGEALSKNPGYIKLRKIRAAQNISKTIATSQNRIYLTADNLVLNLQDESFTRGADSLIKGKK
exo-PHB2 Thr288Ala (MYC-tagged) (Q99623, form named): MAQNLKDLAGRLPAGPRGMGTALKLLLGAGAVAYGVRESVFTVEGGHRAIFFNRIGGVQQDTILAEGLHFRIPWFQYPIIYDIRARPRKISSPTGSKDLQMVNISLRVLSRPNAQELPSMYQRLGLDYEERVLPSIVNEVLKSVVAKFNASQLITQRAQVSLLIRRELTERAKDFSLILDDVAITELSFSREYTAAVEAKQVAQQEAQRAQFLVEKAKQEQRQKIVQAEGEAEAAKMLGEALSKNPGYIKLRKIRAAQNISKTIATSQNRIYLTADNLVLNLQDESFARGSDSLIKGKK

Assays:
Test in all cases: co-IP; 50 ng recombinant IGFBP6-His added to 1 mg HCC cell lysate; PHB2-MYC immunoprecipitated, IGFBP6 detected by western blot; NET buffer, protein-A Sepharose, 4 °C over 12 h; only the binder purified
[1] = molecular target: exo-PHB2 (MYC-tagged PHB2, wild-type sequence) (UniProt Q99623)
[2] = molecular target: exo-PHB2 Ser291Ala (MYC-tagged) (UniProt Q99623)
[3] = molecular target: exo-PHB2 Thr288Ala (MYC-tagged) (UniProt Q99623)

Measured: binding

B1: recombinant IGFBP6 with His-tag (protein, UniProt P24592 28-240)
chain: RCPGCGQGVQAGCPGGCVEEEDGGSPAEGCAEAEGCLRREGQECGVYTPNCAPGLQCHPPKDDEAPLRALLLGRGRCLPARAPAVAEENPKESKPQAGTARPQDVNRRDQQRNPGTSTTPSQPNSAGVQDTEMGPCRRHLDSVLQQLQTEVYRGAQTLYVPNCDHRGFYRKRQCRSSQGQRRGPCWCVDRMGKSLPGSPDGNGSSSCPTGSSG
binds: all assays above
